# Source: the supplement of paper PMC10032668
# Protein sequences, listed by entry. Tags and fused reporters are not part of them.
# CFDP1, Q9UEE9, UniProt Q9UEE9, whole entry: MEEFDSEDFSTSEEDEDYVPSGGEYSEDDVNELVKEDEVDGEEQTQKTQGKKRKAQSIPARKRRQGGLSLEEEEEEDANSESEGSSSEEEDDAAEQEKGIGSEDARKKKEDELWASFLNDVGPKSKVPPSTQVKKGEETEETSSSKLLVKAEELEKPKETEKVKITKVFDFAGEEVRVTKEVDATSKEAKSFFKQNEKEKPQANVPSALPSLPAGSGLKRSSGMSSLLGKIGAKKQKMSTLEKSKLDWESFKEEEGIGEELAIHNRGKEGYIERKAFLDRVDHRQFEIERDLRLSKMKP
# DPY30, Q9C005, UniProt Q9C005, whole entry: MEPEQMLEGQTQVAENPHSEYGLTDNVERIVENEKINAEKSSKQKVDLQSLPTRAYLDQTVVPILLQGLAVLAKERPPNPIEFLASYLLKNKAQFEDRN
# RANBP2, P49792, UniProt P49792, whole entry: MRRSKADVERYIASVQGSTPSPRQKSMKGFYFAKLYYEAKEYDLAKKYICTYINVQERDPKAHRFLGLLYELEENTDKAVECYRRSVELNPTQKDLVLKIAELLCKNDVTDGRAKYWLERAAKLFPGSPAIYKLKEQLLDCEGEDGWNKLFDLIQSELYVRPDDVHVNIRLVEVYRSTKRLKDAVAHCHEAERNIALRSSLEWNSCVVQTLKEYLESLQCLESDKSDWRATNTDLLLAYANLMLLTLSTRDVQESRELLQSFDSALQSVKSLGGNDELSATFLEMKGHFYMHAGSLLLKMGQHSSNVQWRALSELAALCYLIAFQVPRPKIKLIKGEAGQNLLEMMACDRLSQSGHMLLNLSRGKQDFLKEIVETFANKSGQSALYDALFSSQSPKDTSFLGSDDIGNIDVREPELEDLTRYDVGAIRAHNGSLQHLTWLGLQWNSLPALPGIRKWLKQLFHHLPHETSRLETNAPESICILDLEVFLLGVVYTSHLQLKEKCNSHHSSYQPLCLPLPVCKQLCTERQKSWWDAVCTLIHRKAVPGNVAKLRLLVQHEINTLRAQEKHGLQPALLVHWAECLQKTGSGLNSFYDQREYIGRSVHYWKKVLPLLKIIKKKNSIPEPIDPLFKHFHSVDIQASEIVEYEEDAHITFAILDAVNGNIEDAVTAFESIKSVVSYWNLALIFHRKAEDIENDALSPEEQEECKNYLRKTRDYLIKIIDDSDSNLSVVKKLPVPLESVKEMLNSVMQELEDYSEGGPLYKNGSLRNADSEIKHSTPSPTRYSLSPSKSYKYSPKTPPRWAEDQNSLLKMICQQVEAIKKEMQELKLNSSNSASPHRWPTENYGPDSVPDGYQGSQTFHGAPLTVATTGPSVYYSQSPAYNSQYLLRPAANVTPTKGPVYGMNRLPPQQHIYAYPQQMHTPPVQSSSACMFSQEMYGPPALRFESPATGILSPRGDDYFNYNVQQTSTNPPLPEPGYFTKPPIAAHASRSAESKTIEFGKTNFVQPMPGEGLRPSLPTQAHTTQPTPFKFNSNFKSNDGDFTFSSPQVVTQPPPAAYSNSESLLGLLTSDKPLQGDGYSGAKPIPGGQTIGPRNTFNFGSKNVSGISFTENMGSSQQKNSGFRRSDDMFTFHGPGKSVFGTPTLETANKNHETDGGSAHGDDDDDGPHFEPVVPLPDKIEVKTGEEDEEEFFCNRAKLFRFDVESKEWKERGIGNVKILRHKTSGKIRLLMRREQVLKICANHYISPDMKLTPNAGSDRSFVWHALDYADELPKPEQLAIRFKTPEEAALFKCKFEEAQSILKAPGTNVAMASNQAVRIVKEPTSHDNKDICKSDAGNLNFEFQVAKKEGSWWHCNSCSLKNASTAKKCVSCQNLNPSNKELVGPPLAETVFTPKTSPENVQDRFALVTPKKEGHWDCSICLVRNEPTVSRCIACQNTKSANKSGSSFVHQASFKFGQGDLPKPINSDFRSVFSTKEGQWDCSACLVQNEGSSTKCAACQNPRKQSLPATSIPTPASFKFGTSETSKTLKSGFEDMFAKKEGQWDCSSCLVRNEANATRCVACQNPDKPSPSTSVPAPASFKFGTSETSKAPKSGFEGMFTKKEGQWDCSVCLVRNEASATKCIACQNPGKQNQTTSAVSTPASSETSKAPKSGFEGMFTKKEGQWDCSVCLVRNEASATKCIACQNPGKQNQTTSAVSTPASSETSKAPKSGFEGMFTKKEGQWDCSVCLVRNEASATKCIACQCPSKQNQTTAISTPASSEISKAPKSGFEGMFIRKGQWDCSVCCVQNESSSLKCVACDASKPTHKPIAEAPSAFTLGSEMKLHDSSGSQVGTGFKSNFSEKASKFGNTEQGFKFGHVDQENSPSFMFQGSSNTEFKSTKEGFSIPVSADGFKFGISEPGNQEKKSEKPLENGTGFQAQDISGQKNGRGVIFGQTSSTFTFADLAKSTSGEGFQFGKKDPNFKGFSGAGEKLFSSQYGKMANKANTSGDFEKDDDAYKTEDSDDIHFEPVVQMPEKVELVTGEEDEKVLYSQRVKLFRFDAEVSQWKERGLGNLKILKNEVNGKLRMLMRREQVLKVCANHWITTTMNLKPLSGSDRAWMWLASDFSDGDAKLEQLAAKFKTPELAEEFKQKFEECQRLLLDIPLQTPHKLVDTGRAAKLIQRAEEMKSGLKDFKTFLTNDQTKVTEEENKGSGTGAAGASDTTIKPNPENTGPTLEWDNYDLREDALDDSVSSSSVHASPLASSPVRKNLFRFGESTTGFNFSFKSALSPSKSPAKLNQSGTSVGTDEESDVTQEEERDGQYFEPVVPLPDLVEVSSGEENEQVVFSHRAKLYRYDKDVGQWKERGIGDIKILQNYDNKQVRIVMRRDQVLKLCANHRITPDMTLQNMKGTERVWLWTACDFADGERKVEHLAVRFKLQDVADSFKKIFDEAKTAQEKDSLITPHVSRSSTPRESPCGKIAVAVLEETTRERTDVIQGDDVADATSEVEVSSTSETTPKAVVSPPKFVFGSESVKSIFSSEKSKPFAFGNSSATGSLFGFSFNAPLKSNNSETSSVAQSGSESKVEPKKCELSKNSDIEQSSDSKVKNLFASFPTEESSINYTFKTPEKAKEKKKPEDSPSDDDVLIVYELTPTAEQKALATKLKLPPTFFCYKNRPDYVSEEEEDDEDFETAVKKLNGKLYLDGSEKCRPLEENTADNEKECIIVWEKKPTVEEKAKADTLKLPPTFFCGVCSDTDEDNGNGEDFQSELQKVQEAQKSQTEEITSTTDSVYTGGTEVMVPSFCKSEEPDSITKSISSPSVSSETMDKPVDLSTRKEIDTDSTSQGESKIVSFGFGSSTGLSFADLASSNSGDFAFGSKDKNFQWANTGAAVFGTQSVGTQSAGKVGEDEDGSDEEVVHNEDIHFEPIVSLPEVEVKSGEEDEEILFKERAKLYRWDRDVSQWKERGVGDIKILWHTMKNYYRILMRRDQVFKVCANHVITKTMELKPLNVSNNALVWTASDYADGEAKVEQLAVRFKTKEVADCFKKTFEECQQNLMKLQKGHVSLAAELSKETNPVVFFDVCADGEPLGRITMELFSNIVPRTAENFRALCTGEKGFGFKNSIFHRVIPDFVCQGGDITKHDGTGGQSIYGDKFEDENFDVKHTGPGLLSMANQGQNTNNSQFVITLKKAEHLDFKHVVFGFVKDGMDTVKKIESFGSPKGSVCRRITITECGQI
# SNRNP200, O75643, UniProt O75643, whole entry: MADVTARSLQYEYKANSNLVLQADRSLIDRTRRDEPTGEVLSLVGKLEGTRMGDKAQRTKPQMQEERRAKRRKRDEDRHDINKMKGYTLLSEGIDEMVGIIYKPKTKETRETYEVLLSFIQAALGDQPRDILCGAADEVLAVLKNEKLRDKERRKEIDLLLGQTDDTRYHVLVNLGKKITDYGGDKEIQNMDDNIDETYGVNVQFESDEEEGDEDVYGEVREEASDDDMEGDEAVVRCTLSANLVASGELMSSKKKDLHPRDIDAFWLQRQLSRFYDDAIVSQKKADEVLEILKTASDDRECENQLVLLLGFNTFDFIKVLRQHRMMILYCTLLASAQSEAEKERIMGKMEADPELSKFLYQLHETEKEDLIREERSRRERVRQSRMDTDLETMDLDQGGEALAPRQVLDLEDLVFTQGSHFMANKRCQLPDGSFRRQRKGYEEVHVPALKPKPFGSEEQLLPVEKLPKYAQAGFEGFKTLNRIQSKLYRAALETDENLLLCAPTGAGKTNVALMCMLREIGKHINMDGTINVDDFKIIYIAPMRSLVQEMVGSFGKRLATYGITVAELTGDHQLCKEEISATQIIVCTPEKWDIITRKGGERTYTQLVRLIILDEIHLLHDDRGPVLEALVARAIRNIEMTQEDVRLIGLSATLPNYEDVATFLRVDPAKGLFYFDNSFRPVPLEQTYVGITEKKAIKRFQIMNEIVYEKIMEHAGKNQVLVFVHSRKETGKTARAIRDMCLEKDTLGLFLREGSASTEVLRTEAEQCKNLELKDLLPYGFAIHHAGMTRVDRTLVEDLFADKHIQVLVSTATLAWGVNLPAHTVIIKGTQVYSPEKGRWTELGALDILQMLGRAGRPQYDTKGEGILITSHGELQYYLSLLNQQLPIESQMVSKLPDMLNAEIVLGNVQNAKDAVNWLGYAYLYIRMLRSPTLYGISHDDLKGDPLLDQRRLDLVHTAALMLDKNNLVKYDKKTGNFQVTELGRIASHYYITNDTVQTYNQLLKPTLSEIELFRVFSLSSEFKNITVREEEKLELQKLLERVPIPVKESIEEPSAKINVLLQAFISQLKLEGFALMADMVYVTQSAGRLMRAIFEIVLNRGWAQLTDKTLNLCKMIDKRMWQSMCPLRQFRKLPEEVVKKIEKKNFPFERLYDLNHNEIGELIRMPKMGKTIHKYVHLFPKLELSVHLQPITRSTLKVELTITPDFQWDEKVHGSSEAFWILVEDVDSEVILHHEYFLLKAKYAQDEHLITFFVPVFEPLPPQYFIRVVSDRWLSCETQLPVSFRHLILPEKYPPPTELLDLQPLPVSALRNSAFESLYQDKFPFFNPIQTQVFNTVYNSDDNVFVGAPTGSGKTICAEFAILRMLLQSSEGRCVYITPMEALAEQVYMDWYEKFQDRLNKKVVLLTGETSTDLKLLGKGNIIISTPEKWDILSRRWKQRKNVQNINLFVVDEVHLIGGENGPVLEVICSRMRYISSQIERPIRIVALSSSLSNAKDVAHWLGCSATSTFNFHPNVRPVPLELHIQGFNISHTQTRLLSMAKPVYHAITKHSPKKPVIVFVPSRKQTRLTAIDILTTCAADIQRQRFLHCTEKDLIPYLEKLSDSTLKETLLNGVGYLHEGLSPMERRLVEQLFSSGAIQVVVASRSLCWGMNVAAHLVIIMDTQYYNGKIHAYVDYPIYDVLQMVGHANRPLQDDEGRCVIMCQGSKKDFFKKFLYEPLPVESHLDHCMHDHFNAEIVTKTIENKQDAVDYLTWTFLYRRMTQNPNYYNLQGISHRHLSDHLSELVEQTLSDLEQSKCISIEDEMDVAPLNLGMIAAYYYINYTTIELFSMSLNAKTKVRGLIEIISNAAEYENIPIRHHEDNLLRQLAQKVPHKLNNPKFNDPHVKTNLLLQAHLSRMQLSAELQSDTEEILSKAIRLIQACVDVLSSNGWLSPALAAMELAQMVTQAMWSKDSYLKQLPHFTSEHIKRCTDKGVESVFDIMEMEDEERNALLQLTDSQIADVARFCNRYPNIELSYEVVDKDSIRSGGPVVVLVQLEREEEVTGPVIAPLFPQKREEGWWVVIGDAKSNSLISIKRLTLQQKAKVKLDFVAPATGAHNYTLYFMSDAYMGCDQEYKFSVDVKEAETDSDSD
# TAF5, Q15542, UniProt Q15542, whole entry: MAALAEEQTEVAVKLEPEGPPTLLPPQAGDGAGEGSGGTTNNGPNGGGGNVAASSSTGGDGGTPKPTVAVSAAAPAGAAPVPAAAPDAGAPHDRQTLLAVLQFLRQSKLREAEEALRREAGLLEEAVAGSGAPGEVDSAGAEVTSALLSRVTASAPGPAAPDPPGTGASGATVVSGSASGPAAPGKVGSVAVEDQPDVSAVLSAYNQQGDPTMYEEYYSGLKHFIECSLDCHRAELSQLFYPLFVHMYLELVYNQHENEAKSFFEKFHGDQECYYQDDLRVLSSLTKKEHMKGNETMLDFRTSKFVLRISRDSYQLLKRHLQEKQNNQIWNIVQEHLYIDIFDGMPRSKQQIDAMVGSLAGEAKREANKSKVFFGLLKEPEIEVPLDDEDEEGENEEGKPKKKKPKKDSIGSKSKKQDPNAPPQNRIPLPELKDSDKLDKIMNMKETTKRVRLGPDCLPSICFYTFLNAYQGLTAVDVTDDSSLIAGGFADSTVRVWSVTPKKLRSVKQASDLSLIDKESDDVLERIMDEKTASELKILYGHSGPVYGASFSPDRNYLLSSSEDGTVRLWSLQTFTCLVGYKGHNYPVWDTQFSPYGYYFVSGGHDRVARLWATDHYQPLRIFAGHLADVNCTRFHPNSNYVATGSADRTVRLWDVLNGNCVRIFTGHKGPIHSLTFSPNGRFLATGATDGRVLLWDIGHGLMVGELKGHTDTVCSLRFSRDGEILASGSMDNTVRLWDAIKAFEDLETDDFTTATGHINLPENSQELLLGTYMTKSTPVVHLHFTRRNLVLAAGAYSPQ
# Some of the results follow. The list holds hits alone, and they repeat only in part.
# What was measured:
# Test in all cases: PRISMA enrichment of interactor (LFQ) in peptide spot vs all other peptide spots (log2 fold change); higher = stronger / more specific binding of the interactor to the peptide
# ANXA7, P20073 = target: ANXA7, P20073
# Description: (§1)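 PRISMA: 15-aa overlapping tiles (offset 8 aa) of 60 microproteins, plus SOS1/GLUT1 control peptides, were spot-synthesized on cellulose membranes in triplicate. Membranes were incubated with benzonase-treated HEK293T lysate, and bound proteins were identified by LC-MS/MS with LFQ. Enrichment is the log2 fold change of each protein in one spot versus all other spots. Only interactors passing the significance cutoff are listed.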
# ARL6IP4, Q66PJ3 = target: ARL6IP4, Q66PJ3
# Description: as §1
# ATR, Q13535 = target: ATR, Q13535
# Description: as §1
# ATXN2L, Q8WWM7 = target: ATXN2L, Q8WWM7
# Description: as §1
# C1orf131, Q8NDD1 = target: C1orf131, Q8NDD1
# Description: as §1
# CFDP1, Q9UEE9 = target: CFDP1, Q9UEE9
# Description: as §1
# [1] = substrate: CNP, P09543
# Description: as §1
# COG4, Q9H9E3 = target: COG4, Q9H9E3
# Description: as §1
# CORO7-PAM16 = target: CORO7-PAM16
# Description: as §1
# CPS1, P31327 = target: CPS1, P31327
# Description: as §1
# DCAF7, P61962 = target: DCAF7, P61962
# Description: as §1
# DFFA, O00273 = target: DFFA, O00273
# Description: as §1
# DNAJB6, O75190 = target: DNAJB6, O75190
# Description: as §1
# DPY30, Q9C005 = target: DPY30, Q9C005
# Description: as §1
# DSC1, Q08554 = target: DSC1, Q08554
# Description: as §1
# EHHADH, Q08426 = target: EHHADH, Q08426
# Description: as §1
# EMD, P50402 = target: EMD, P50402
# Description: as §1
# FAM168A, Q92567 = target: FAM168A, Q92567
# Description: as §1
# GEMIN4, P57678 = target: GEMIN4, P57678
# Description: as §1
# HP, P00738 = target: HP, P00738
# Description: as §1
# ITSN2, Q9NZM3 = target: ITSN2, Q9NZM3
# Description: as §1
# KIF22, Q14807 = target: KIF22, Q14807
# Description: as §1
# KRI1, Q8N9T8 = target: KRI1, Q8N9T8
# Description: as §1
# MCM6, Q14566 = target: MCM6, Q14566
# Description: as §1
# MED23, Q9ULK4 = target: MED23, Q9ULK4
# Description: as §1
# NOLC1, Q14978 = target: NOLC1, Q14978
# Description: as §1
# PACSIN2, Q9UNF0 = target: PACSIN2, Q9UNF0
# Description: as §1
# PAK4, O96013 = target: PAK4, O96013
# Description: as §1
# PSRC1, Q6PGN9 = target: PSRC1, Q6PGN9
# Description: as §1
# RAB6A, P20340 = target: RAB6A, P20340
# Description: as §1
# RANBP2, P49792 = target: RANBP2, P49792
# Description: as §1
# RCL1, Q9Y2P8 = target: RCL1, Q9Y2P8
# Description: as §1
# SAAL1, Q96ER3 = target: SAAL1, Q96ER3
# Description: as §1
# SLC35F6, Q8N357 = target: SLC35F6, Q8N357
# Description: as §1
# SNRNP200, O75643 = target: SNRNP200, O75643
# Description: as §1
# TAF5, Q15542 = target: TAF5, Q15542
# Description: as §1
# TBRG4, Q969Z0 = target: TBRG4, Q969Z0
# Description: as §1
# TRMT112, Q9UI30 = target: TRMT112, Q9UI30
# Description: as §1
# UBAP2L, Q14157 = target: UBAP2L, Q14157
# Description: as §1
# VIM, P08670 = target: VIM, P08670
# Description: as §1
# VPS52, Q8N1B4 = target: VPS52, Q8N1B4
# Description: as §1
# ZW10, O43264 = target: ZW10, O43264
# Description: as §1
# ZZEF1, O43149 = target: ZZEF1, O43149
# Description: as §1
binder,measurement,setting,value
QKLEDAEARERQLEK [MIEF-MP],PRISMA enrichment of interactor (log2),"ANXA7, P20073",3.91
same,PRISMA enrichment of interactor (log2),"ARL6IP4, Q66PJ3",4.09
same,PRISMA enrichment of interactor (log2),"ATR, Q13535",5.94
same,PRISMA enrichment of interactor (log2),"ATXN2L, Q8WWM7",4.94
same,PRISMA enrichment of interactor (log2),"C1orf131, Q8NDD1",5.29
same,PRISMA enrichment of interactor (log2),"CFDP1, Q9UEE9",5.48
same,PRISMA enrichment of interactor (log2),[1],5.94
same,PRISMA enrichment of interactor (log2),"COG4, Q9H9E3",6.06
same,PRISMA enrichment of interactor (log2),CORO7-PAM16,8
same,PRISMA enrichment of interactor (log2),"CPS1, P31327",4.77
same,PRISMA enrichment of interactor (log2),"DCAF7, P61962",5.47
same,PRISMA enrichment of interactor (log2),"DFFA, O00273",4.66
same,PRISMA enrichment of interactor (log2),"DNAJB6, O75190",7.52
same,PRISMA enrichment of interactor (log2),"DPY30, Q9C005",5.86
same,PRISMA enrichment of interactor (log2),"DSC1, Q08554",5.62
same,PRISMA enrichment of interactor (log2),"EHHADH, Q08426",9.84
same,PRISMA enrichment of interactor (log2),"EMD, P50402",7.17
same,PRISMA enrichment of interactor (log2),"FAM168A, Q92567",8.81
same,PRISMA enrichment of interactor (log2),"GEMIN4, P57678",10.3
same,PRISMA enrichment of interactor (log2),"HP, P00738",4.56
same,PRISMA enrichment of interactor (log2),"ITSN2, Q9NZM3",8
same,PRISMA enrichment of interactor (log2),"KIF22, Q14807",5.79
same,PRISMA enrichment of interactor (log2),"KRI1, Q8N9T8",5.55
same,PRISMA enrichment of interactor (log2),"MCM6, Q14566",4.81
same,PRISMA enrichment of interactor (log2),"MED23, Q9ULK4",5.32
same,PRISMA enrichment of interactor (log2),"NOLC1, Q14978",7.9
same,PRISMA enrichment of interactor (log2),"PACSIN2, Q9UNF0",4.35
same,PRISMA enrichment of interactor (log2),"PAK4, O96013",6.08
same,PRISMA enrichment of interactor (log2),"PSRC1, Q6PGN9",7.72
same,PRISMA enrichment of interactor (log2),"RAB6A, P20340",4.76
same,PRISMA enrichment of interactor (log2),"RANBP2, P49792",6.87
same,PRISMA enrichment of interactor (log2),"RCL1, Q9Y2P8",5.21
same,PRISMA enrichment of interactor (log2),"SAAL1, Q96ER3",6.02
same,PRISMA enrichment of interactor (log2),"SLC35F6, Q8N357",4.2
same,PRISMA enrichment of interactor (log2),"SNRNP200, O75643",5.1
same,PRISMA enrichment of interactor (log2),"TAF5, Q15542",4.32
same,PRISMA enrichment of interactor (log2),"TBRG4, Q969Z0",3.83
same,PRISMA enrichment of interactor (log2),"TRMT112, Q9UI30",5.41
same,PRISMA enrichment of interactor (log2),"UBAP2L, Q14157",5.64
same,PRISMA enrichment of interactor (log2),"VIM, P08670",4.88
same,PRISMA enrichment of interactor (log2),"VPS52, Q8N1B4",5.87
same,PRISMA enrichment of interactor (log2),"ZW10, O43264",4.31
same,PRISMA enrichment of interactor (log2),"ZZEF1, O43149",4.13

# Reprinted at random: three records from the list
binder,measurement,setting,value
QKLEDAEARERQLEK [MIEF-MP],PRISMA enrichment of interactor (log2),"PACSIN2, Q9UNF0",4.35
same,PRISMA enrichment of interactor (log2),"CPS1, P31327",4.77
same,PRISMA enrichment of interactor (log2),"PAK4, O96013",6.08
